Source: patent publication US6685912B2, “Post-labeling stabilization of radiolabeled proteins and peptides” (Rhomed Incorporated, priority 1996, dated 2004)

Test: Labeling efficiency of Re-188-RC-160 with ascorbic acid present during labeling (C18 SepPak, RP-HPLC, TLC)
Assay type: physicochemical
Excerpt: The results obtained by analytical RP-HPLC were confirmed by TLC studies and by isocratic elutions from C-18 SepPak columns. […] The RP-HPLC results were confirmed by TLC. […] The addition of ascorbate, or ascorbate/sulfite solutions, maximized the reduction of the peptide RC-160, which is present in excess, without compromising ^188Re-RC-160. The radiolabeling kit could be formulated with an excess of stannous ions and RC-160 to accommodate a variety of labeling situations. In the presence of ^188Re, the RC-160 and stannous ions interact to result in what is believed to be metal-cyclized ^188Re-RC-160. […] Since ^188Re is produced essentially carrier-free from a 188W/^188Re generator, it is hypothesized that excess stannous ions will reduce the RC-160 not complexed to ^188Re. […] The net result is a stable radiolabeled peptide with a very high specific activity.

Q: What does the source list for “Re-188-RC-160: RC-160, cyclic somatostatin analogue D-Phe-Cys-Tyr-D-Trp-Lys-Val-Cys-Trp-NH2, radiolabeled with 188Re using stannous kit (WKVCW; D-Phe, D-Trp, disulfide, amide, 188Re label; printed: Trp-Lys-Val-Cys-Trp-)”?
A: radiolabeling (400 μg ascorbic acid added prior to the addition of the rhenium): severely compromised; labeling efficiency (labeled in the presence of 400 μg ascorbic acid, further ascorbic acid added after the labeling): did not result in any improvement; radiolabeling (same amount and concentration of ascorbate added prior to the addition of the rhenium): not effectively radiolabeled
